Some entries share one result that the patent states for a list of compounds.
Key:
[1] = target: T1, hM3 muscarinic receptor subtype (Homo sapiens, UniProt P20309); assay: Radioligand binding assay ([3H]-NMS displacement); settings: CHO cell membranes, [3H]-NMS at 1 nM, Cheng-Prusoff; read-out: Ki value for the M3 muscarinic receptor subtype
T1 construct: expressed in transfected cells; crude membranes prepared in house
Description: A. Membrane Preparation from Cells Expressing hM1, hM2, hM3 and hM4 Muscarinic Receptor Subtypes
CHO cell lines stably expressing cloned human hM1, hM2, hM3 and hM4 muscarinic receptor subtypes, respectively, were grown to near confluency in medium consisting of HAM's F-12 supplemented with 10% FBS and 250 μg/mL Geneticin. The cells were grown in a 5% CO2, 37° C. incubator and lifted with 2 mM EDTA in dPBS. Cells were collected by 5 minute centrifugation at 650×g, and cell pellets were either stored frozen at −80° C. or membranes were prepared immediately. For membrane preparation, cell pellets were suspended in lysis buffer and homogenized with a Polytron PT-2100 tissue disrupter (Kinematica AG; 20 seconds×2 bursts). Crude membranes were centrifuged at 40,000×g for 15 minutes at 4° C. The membrane pellet was then resuspended with resuspension buffer and homogenized again with the Polytron tissue disrupter. The protein concentration of the membrane suspension was determined by the method described in Lowry, O. et al., Journal of Biochemistry 193:265 (1951). All membranes were stored frozen in aliquots at −80° C. or used immediately. Aliquots of prepared hM5 receptor membranes were purchased directly from Perkin Elmer and stored at −80° C. until use.
B. Radioligand Binding Assay on Muscarinic Receptor Subtypes hM1, hM2, hM3, hM4 and hM5
Radioligand binding assays were performed in 96-well microtiter plates in a total assay volume of 100 μL. CHO cell membranes stably expressing either the hM1, hM2, hM3, hM4 or hM5 muscarinic subtype were diluted in assay buffer to the following specific target protein concentrations (μg/well): 10 μg for hM1, 10-15 μg for hM2, 10-20 μg for hM3, 10-20 μg for hM4, and 10-12 μg for hM5. The membranes were briefly homogenized using a Polytron tissue disruptor (10 seconds) prior to assay plate addition. Saturation binding studies for determining KD values of the radioligand were performed using L-[N-methyl-^3H]scopolamine methyl chloride ([^3H]-NMS) (TRK666, 84.0 Ci/mmol, Amersham Pharmacia Biotech, Buckinghamshire, England) at concentrations ranging from 0.001 nM to 20 nM. Displacement assays for determination of Ki values of test compounds were performed with [^3H]-NMS at 1 nM and eleven different test compound concentrations. The test compounds were initially dissolved to a concentration of 400 μM in dilution buffer and then serially diluted 5× with dilution buffer to final concentrations ranging from 10 pM to 100 μM. The addition order and volumes to the assay plates were as follows: 25 μL radioligand, 25 μL diluted test compound, and 50 μL membranes. Assay plates were incubated for 60 minutes at 37° C. Binding reactions were terminated by rapid filtration over GF/B glass fiber filter plates (Perkin Elmer Inc., Wellesley, Mass.) pre-treated in 1% BSA. Filter plates were rinsed three times with wash buffer (10 mM HEPES) to remove unbound radioactivity. Plates were then air dried, and 50 μL Microscint-20 liquid scintillation fluid (PerkinElmer Inc., Wellesley, Mass.) was added to each well. The plates were then counted in a PerkinElmer Topcount liquid scintillation counter (PerkinElmer Inc., Wellesley, Mass.). Binding data were analyzed by nonlinear regression analysis with the GraphPad Prism Software package (GraphPad Software, Inc., San Diego, Calif.) using the one-site competition model. Ki values for test compounds were calculated from observed IC50 values and the KD value of the radioligand using the Cheng-Prusoff equation (Cheng Y; Prusoff W. H. Biochemical Pharmacology 22(23):3099-108 (1973)). Ki values were converted to pKi values to determine the geometric mean and 95% confidence intervals. These summary statistics were then converted back to Ki values for data reporting.

The chains behind the UniProt entries cited, without tags or fusion partners.
UniProt P20309, whole entry: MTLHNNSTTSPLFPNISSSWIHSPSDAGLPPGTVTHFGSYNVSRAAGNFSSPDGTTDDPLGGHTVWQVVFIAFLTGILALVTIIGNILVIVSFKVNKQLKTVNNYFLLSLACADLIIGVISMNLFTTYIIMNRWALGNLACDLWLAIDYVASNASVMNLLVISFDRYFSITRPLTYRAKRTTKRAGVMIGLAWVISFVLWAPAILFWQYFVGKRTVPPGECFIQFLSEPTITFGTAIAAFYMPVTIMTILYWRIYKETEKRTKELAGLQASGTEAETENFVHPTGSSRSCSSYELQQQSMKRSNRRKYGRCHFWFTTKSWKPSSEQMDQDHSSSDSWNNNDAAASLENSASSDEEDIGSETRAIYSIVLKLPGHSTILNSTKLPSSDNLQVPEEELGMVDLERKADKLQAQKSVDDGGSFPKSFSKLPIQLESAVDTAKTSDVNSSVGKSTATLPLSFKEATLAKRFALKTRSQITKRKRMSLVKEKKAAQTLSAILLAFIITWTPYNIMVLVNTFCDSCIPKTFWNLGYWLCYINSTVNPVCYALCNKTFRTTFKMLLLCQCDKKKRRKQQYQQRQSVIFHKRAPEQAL

[2] = test system: ACh-induced bronchoconstriction; assay: Duration of bronchoprotection in guinea pig model of acetylcholine-induced bronchoconstriction; format: in vivo; settings: inhalation, 1.5 hours post-dose

| SMILES | Ki [1] [nM] | PD2(50) for ACh-induced bronchoconstriction [2] |
| --- | --- | --- |
| CNCCc1ccc(CCCN2CC[C@@H](C(C(N)=O)(c3ccccc3)c3ccccc3)C2)cc1 [Example 6, 2-((S)-1-{3-[4-(2-Methylaminoethyl)phenyl]propyl}-pyrrolidin-3-yl)-2,2-diphenylacetamide] | < 10 |  |
| CNCCCc1ccc(CCCN2CC[C@@H](C(C(N)=O)(c3ccccc3)c3ccccc3)C2)s1 [Example 4, 2-((S)-1-{3-[5-(3-Methylaminopropyl)thiophen-2-yl]propyl}-pyrrolidin-3-yl)-2,2-diphenylacetamide] | < 10 |  |
| CNCCCc1cccc(CCCN2CC[C@@H](C(C(N)=O)(c3ccccc3)c3ccccc3)C2)c1 [Example 5, 2-((S)-1-{3-[3-(3-Methylaminopropyl)phenyl]propyl}-pyrrolidin-3-yl)-2,2-diphenylacetamide] | < 10 |  |
| CCNCCCc1ccc(CCCN2CC[C@@H](C(C(N)=O)(c3ccccc3)c3ccccc3)C2)s1 [Example 7, 2-[(S)-1-{3-[5-(3-Ethylaminopropyl)thiophen-2-yl]propyl}-pyrrolidin-3-yl]-2,2-diphenylacetamide] | < 10 |  |
| CC(C)NCCCc1ccc(CCCN2CC[C@@H](C(C(N)=O)(c3ccccc3)c3ccccc3)C2)s1 [Example 8, 2-[(S)-1-{3-[5-(3-Isopropylaminopropyl)thiophen-2-yl]propyl}pyrrolidin-3-y]-2,2-diphenylacetamide] | < 10 |  |
| NC(=O)C(c1ccccc1)(c1ccccc1)[C@@H]1CCN(CCCCc2ccc(N)cc2)C1 [Example 1, 2-{(S)-1-[4-(4-Aminophenyl)butyl]pyrrolidin-3-yl}-2,2-diphenylacetamide] | < 10 |  |
| CC(C)NCCc1ccc(CCN2CC[C@@H](C(C(N)=O)(c3ccccc3)c3ccccc3)C2)cc1 [Example 11, 2-[(S)-1-{2-[4-(2-isopropylaminoethyl)phenyl]ethyl}pyrrolidin-3-yl]-2,2-diphenylacetamide] | < 10 |  |
| CNCCc1ccc(CCN2CC[C@@H](C(C(N)=O)(c3ccccc3)c3ccccc3)C2)cc1 [Example 2, 2-((S)-1-{2-[4-(2-Methylaminoethyl)phenyl]ethyl}pyrrolidin-3-yl)-2,2-diphenyl-acetamide] | < 10 | less than 300 μg/mL |
| CN(C)CCCc1ccc(CCCN2CC[C@@H](C(C(N)=O)(c3ccccc3)c3ccccc3)C2)s1 [Example 9, 2-[(S)-1-{3-[5-(3-Dimethylaminopropyl)thiophen-2-yl]-propyl}pyrrolidin-3-yl]-2,2-diphenylacetamide] | < 10 |  |
| CN(C)CCc1ccc(CCN2CC[C@@H](C(C(N)=O)(c3ccccc3)c3ccccc3)C2)cc1 [Example 12, 2-[(S)-1-{2-[4-(2-dimethylaminoethyl)phenyl]ethyl}pyrrolidin-3-yl]-2,2-diphenylacetamide] | < 10 |  |
| CNCCc1cccc(CCN2CC[C@@H](C(C(N)=O)(c3ccccc3)c3ccccc3)C2)c1 [Example 3, 2-((S)-1-{2-[3-(2-Methylaminoethyl)phenyl]ethyl}pyrrolidin-3-yl)-2,2-diphenylacetamide] | < 10 | less than 300 μg/mL |
| CCNCCc1ccc(CCN2CC[C@@H](C(C(N)=O)(c3ccccc3)c3ccccc3)C2)cc1 [Example 10, 2-[(S)-1-{2-[4-(2-Ethylaminoethyl)phenyl]ethyl}pyrrolidin-3-yl]-2,2-diphenylacetamide] | < 10 |  |

Reference: US7250414B2, “Diphenylmethyl compounds useful as muscarinic receptor antagonists” (Theravance, Inc., priority 2004, dated 2007)
